{"source": "paper PMC8779605", "tested_on": "RNS1-DBD (Metarhizium robertsii)", "experiment": "EMSA", "settings": "LightShift Chemiluminescent EMSA kit (Thermo Fisher); pH and temperature not stated; recombinant protein", "note": "For at least one entry, the source does not settle the construct or the ends of the probe. Negatives hold for the conditions tested."}
{"sequence": "TGCCCGTTGGGTTTTACGACAAGACCTTCATTGGCCGGAGCTCTCGTCT (double strand) [AbaA promoter BM2 probe]", "values": [{"measurement": "binding result", "result": "no binding"}]}
